According to patent US20130052192A1 (Novo Nordisk, published 2013):
No constants are given. Whether binding was seen depends on the method and setting. Binding can be weak; no strength is given.

Target: human CD62P (P-Selectin) on the surface of activated platelets (human)
Assay: FACS on activated human platelets with surface CD62P

B1: EP-FpA-PB1.3 mAb construct, incubated without Thrombin (uncleaved) (antibody, human IgG4, V domains shown)
VH: EAQLQQSGPELVEPGASVKVSCKASGYTFTNYVMHWVKQKPGQGLEWIGFINPSNDGPKYNERFKNKATLTSDKSSSTAYMELSSLTSEVSAVYFCARARPGFDWYFDVWGAGTTVTVSS
VL: DIVMTQSQKFMSTSVGDRVSVTCKASQNVATNVVWYQQRPGQSPKALIYTASYRFSGVPERFSGSGSGTDFTLTITNVQSEDLADYFCQQYNNYPYTFGGGTKVEIQR
notes: also called Sample 2
binding: binds
